Measurements from PubChem BioAssay AID248 (DTP/NCI, 2004).
The list is a part of this screen's results and no random one: it is rich in T/C values a quarter to a half above the control, in often repeated tests (any T/C) and in doses without a T/C. Further doses and runs are listed elsewhere. T/C: endpoint of the treated group in % of that of the vehicle group. Some doses have a count of surviving animals in place of a T/C: the source files T/C as zero there, which appears to mark a toxic dose or a test without result, not a measured value. Some survivor counts are full or nearly so, which does not show that the dose was tolerated: the source hardly ever lists a survival T/C far under the control, and the zero likely stands for such cases as well. Survivors were counted at the toxicity check, usually on the fifth day, unless a day is given; later deaths do not show. Schedules are NCI's codes, read here as Q, the interval in days (D) or hours (H), X, the number of doses. Some schedule codes hold Z or #, which are not explained here. For survival time, this PubChem deposit counts one and a half times the control or more as active, and values a quarter to a half above the control carry no call in these data; other NCI protocols may use other cut-offs.

Tested on: L1210 leukemia ip in BDF1 mice, survival T/C
Assay: NCI In Vivo Anticancer Drug Screen. Data for tumor model L1210 Leukemia (intraperitoneal) in B6D2F1 (BDF1) mice
Details: T/C endpoint: mean survival time, higher T/C = longer survival
[1] = dose: 400.0 mg/kg/injection, schedule: Q01DX009 (ip), vehicle: saline with Tween-80
[2] = dose: 400.0 mg/kg/injection, schedule: Q04DX003 (ip), vehicle: saline with Tween-80
[3] = dose: 400.0 mg/kg/injection, schedule: Q01DX001 (ip), vehicle: saline
[4] = dose: 200.0 mg/kg/injection, schedule: Q01DX009 (ip), vehicle: Klucel (hydroxypropylcellulose) (HPC)
[5] = dose: 100.0 mg/kg/injection, schedule: Q04DX003 (ip), vehicle: Klucel (hydroxypropylcellulose) (HPC)
[6] = dose: 200.0 mg/kg/injection, schedule: Q04DX003 (ip), vehicle: Klucel (hydroxypropylcellulose) (HPC)
[7] = dose: 400.0 mg/kg/injection, schedule: Q04DX003 (ip), vehicle: Klucel (hydroxypropylcellulose) (HPC)
[8] = dose: 100.0 mg/kg/injection, schedule: Q04DX003 (ip), vehicle: saline
[9] = dose: 200.0 mg/kg/injection, schedule: Q04DX003 (ip), vehicle: saline

SMILES: COc1ccc(NC(=O)N(CCCl)N=O)cc1OC
- T/C (dose: 2.0 mg/kg/injection, schedule: Q01DX009 (ip), vehicle: Klucel (hydroxypropylcellulose) (HPC)): 145 % of control
- T/C (dose: 2.6 mg/kg/injection, schedule: Q01DX009 (ip), vehicle: Klucel (hydroxypropylcellulose) (HPC)): 125 % of control
- T/C (dose: 10.0 mg/kg/injection, schedule: Q01DX001 (ip), vehicle: carboxymethylcellulose (CMC)): 138 % of control
- survivor count (dose: 22.5 mg/kg/injection, schedule: Q01DX009 (ip), vehicle: carboxymethylcellulose (CMC)): 6 of 6
- survivor count (dose: 30.0 mg/kg/injection, schedule: Q01DX009 (ip), vehicle: Klucel (hydroxypropylcellulose) (HPC)): 6 of 6
- survivor count (dose: 45.0 mg/kg/injection, schedule: Q01DX009 (ip), vehicle: Klucel (hydroxypropylcellulose) (HPC)): 6 of 6
- survivor count (dose: 75.0 mg/kg/injection, schedule: Q01DX001 (ip), vehicle: carboxymethylcellulose (CMC)): 6 of 6
- survivor count (dose: 150.0 mg/kg/injection, schedule: Q01DX001 (ip), vehicle: carboxymethylcellulose (CMC)): 3 of 6
- survivor count (dose: 300.0 mg/kg/injection, schedule: Q01DX001 (ip), vehicle: carboxymethylcellulose (CMC)): 0 of 6

SMILES: CC(=O)OC1CCC2(C)C(=CCC3C2CCC2(C)C(C(C)N)CCC32)C1 (stereo not given)
- survivor count (dose: 200.0 mg/kg/injection, schedule: Q01DX001 (sc), vehicle: steroid suspending solution): 4 of 4

SMILES: O=CC(O)C(O)C(OC1OC(CO)C(O)C(O)C1O)C(O)CO (stereo not given) (tested in a mixture with another compound)
- survivor count [1]: 3 of 6

SMILES: CCC(Cl)COP(=O)(OCC(Cl)CC)C(CC)OP(=S)(OCC(Cl)CC)OCC(Cl)CC (stereo not given)
- survivor count (dose: 350.0 mg/kg/injection, schedule: Q01DX009 (ip), vehicle: Klucel (hydroxypropylcellulose) (HPC)): 5 of 6

SMILES: BrC1(c2ccccc2)C(c2ccccc2)=C1c1ccccc1
- survivor count (dose: 400.0 mg/kg/injection, schedule: Q01DX001 (ip), vehicle: carboxymethylcellulose (CMC)): 1 of 4

SMILES: CC/C=N\N=C(N)N
- survivor count (dose: 480.0 mg/kg/injection, schedule: Q01DX Z (ip), vehicle: saline): 0 of 6

SMILES: O=C(O)C1CC=CCC1C(=O)O (stereo not given)
- survivor count (dose: 400.0 mg/kg/injection, schedule: Q01DX009 (ip), vehicle: saline): 2 of 3

SMILES: O=C(C#CC(=O)[O][Sn]([c]1ccccc1)([c]1ccccc1)[c]1ccccc1)[O][Sn]([c]1ccccc1)([c]1ccccc1)[c]1ccccc1
- survivor count (dose: 25.0 mg/kg/injection, schedule: Q01DX001 (ip), vehicle: Klucel (hydroxypropylcellulose) (HPC)): 2 of 6
- survivor count (dose: 25.0 mg/kg/injection, schedule: Q04DX002 (ip), vehicle: Klucel (hydroxypropylcellulose) (HPC)): 0 of 3
- survivor count (dose: 50.0 mg/kg/injection, schedule: Q04DX002 (ip), vehicle: Klucel (hydroxypropylcellulose) (HPC)): 0 of 3
- survivor count (dose: 55.0 mg/kg/injection, schedule: Q01DX001 (ip), vehicle: Klucel (hydroxypropylcellulose) (HPC)): 3 of 6
- survivor count (dose: 80.0 mg/kg/injection, schedule: Q01DX001 (ip), vehicle: Klucel (hydroxypropylcellulose) (HPC)): 2 of 6
- survivor count (dose: 100.0 mg/kg/injection, schedule: Q04DX002 (ip), vehicle: Klucel (hydroxypropylcellulose) (HPC)): 0 of 3

SMILES: COc1cc(C(=O)C[n+]2ccccc2)ccc1O
- survivor count [2]: 2 of 6

SMILES: O=c1c(Cl)c(C(Cl)(Cl)Cl)[nH]c2ccc([N+](=O)[O-])cc12
- survivor count (dose: 100.0 mg/kg/injection, schedule: Q01DX001 (ip), vehicle: saline with Tween-80): 2 of 6

SMILES: C[N+](C)(C)C(=O)c1ccccc1
- survivor count (dose: 200.0 mg/kg/injection, schedule: Q01DX001 (ip), vehicle: saline): 0 of 4
- survivor count [3]: 0 of 4

SMILES: CCOc1c(OC)cc(/C=C/C(=O)NC2CC2)cc1OC
- survivor count (dose: 50.0 mg/kg/injection, schedule: Q01DX009 (ip), vehicle: Klucel (hydroxypropylcellulose) (HPC)): 3 of 3
- survivor count [4]: 6 of 6
- survivor count (dose: 400.0 mg/kg/injection, schedule: Q01DX009 (ip), vehicle: Klucel (hydroxypropylcellulose) (HPC)): 0 of 6

SMILES: Nc1nccnc1N
- survivor count (dose: 200.0 mg/kg/injection, schedule: Q01DX009 (ip), vehicle: saline): 2 of 6
- survivor count [3]: 3 of 6

SMILES: C/C(=C\c1ccccc1)[N+](=O)[O-]
- survivor count (dose: 100.0 mg/kg/injection, schedule: Q01DX009 (ip), vehicle: Klucel (hydroxypropylcellulose) (HPC)): 3 of 6
- survivor count [5]: 6 of 6
- survivor count (dose: 160.0 mg/kg/injection, schedule: Q04DX003 (ip), vehicle: Klucel (hydroxypropylcellulose) (HPC)): 5 of 6
- survivor count [4]: 0 of 6
- survivor count [6]: 0 of 6
- survivor count [7]: 0 of 6

SMILES: COc1ccn(C)c(=O)n1
- survivor count (dose: 50.0 mg/kg/injection, schedule: Q01DX009 (ip), vehicle: saline): 2 of 6
- survivor count [8]: 1 of 6
- survivor count [9]: 0 of 6
- survivor count (dose: 400.0 mg/kg/injection, schedule: Q04DX003 (ip), vehicle: saline): 0 of 6

SMILES: S=C([S-])[P+](C1CCCCC1)(C1CCCCC1)C1CCCCC1
- survivor count [2]: 6 of 6

SMILES: CC1=NN(c2ccccc2)C(=O)C1(Br)Br
- survivor count (dose: 200.0 mg/kg/injection, schedule: Q04DX003 (ip), vehicle: saline with Tween-80): 3 of 6
- survivor count [2]: 0 of 6

SMILES: CCCCCCCC(CC(=O)O)OC(=O)CC(CCCCCCC)OC1OC(C)C(O)C(O)C1OC1OC(C)C(O)C(O)C1O (stereo not given)
- survivor count (dose: 400.0 mg/kg/injection, schedule: Q04DX002 (ip), vehicle: Klucel (hydroxypropylcellulose) (HPC)): 0 of 3

SMILES: CS(=O)(=O)ON1C(=O)c2ccccc2C1=O
- survivor count (dose: 50.0 mg/kg/injection, schedule: Q01DX009 (ip), vehicle: saline with Tween-80): 2 of 6
- survivor count (dose: 100.0 mg/kg/injection, schedule: Q01DX009 (ip), vehicle: saline with Tween-80): 0 of 6
- survivor count [8]: 2 of 6
- survivor count [9]: 0 of 6

SMILES: CCOC(=O)C1C2C=CC=CC(=O)C21 (stereo not given)
- survivor count (dose: 400.0 mg/kg/injection, schedule: Q01DX009 (ip), vehicle: other): 3 of 6

SMILES: COc1cc(CCl)c(OC)cc1Cl
- survivor count [1]: 5 of 6

SMILES: NC(CC(=O)O)C(=O)O.[Cu+2] (stereo not given)
- survivor count (dose: 40.0 mg/kg/injection, schedule: Q04DX003 (ip), vehicle: Klucel (hydroxypropylcellulose) (HPC)): 6 of 6
- survivor count (dose: 80.0 mg/kg/injection, schedule: Q04DX003 (ip), vehicle: Klucel (hydroxypropylcellulose) (HPC)): 6 of 6
- survivor count [5]: 0 of 6
- survivor count [6]: 0 of 6
- survivor count [7]: 6 of 6
